Test results from PubChem BioAssay AID2685 (National Center for Advancing Translational Sciences (NCATS), 2010).
Among all 320,000 compounds or so, about 2,100 (0.66%) were called active. Inconclusive results, whose numbers are uncertain, are shown with a selection of clear calls. Calls follow the shape of the dose curve; as a rule, active = well fitted inhibition curve with a large enough effect in the signal ratio, with a control signal flat (not every such curve was filed as active); inconclusive = small, poorly fitted or top-dose-only effect, or effect the other way, or a change in a side signal; inactive = flat fitted curve, though single readings scatter; the % refers to the signal ratio. Where the call is inconclusive, the potency comes from a doubtful curve fit.
% is scaled to controls: 0 for no effect and ±100 for the full control effect; potency is read from the fitted curve at half-maximal effect.

Experiment: qHTS Assay for Lipid Storage Modulators in Drosophila S3 Cells
Settings: BODIPY lipid droplet fluorescence, 18-24 h, cells fed with added oleic acid; lipid storage change, negative = inhibition: at 46.1 µM (top of the series) unless noted
Summary of the method: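 Laser-scanning cytometry quantifies lipid droplet accumulation (500–530 nm total intensity; droplet/cell object ratio) in oleic acid-fed (400 uM added) Drosophila S3 cells treated with a concentration series. 20 uM Triacsin C defined 100% inhibition.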
With COc1cc2c3nnc(-c4ccc(F)cc4)c-3cn(Cc3cccc(C)c3)c2cc1OC the Potency was inconclusive: 32.6 µM [falling, single point].
With Cc1nccn1-c1ccc(C(F)(F)F)cc1NC=O the lipid storage change, negative = inhibition was inconclusive: -57.5%.
For O=C(CNC(=O)c1cccs1)c1ccc([N+](=O)[O-])cc1, the lipid storage change, negative = inhibition was inconclusive: 5.12%.
With Cc1ccc(-c2cc(C(=O)N/N=C/C=C/c3ccccc3)n[nH]2)o1 the lipid storage change, negative = inhibition was inconclusive: 39%.
For CCCCc1cc(=O)oc2cc(OCC(=O)NC(Cc3c[nH]c4ccc(O)cc34)C(=O)O)ccc12 (stereo not drawn), the lipid storage change, negative = inhibition was “inactive”.
In the case of Cc1ccc(S(=O)(=O)N/N=C\c2cn(CC(N)=O)c3ccccc23)cc1, the Potency is reported as inconclusive: 13 µM [activator, partial curve].
With CCN1C(=O)c2ccc(C(=O)Nc3ccc(O)cc3C)cc2C1=O the Potency was inconclusive: 11.6 µM [falling, partial curve].
In the case of CC(=O)c1cnc(SCCN2C(=O)c3ccccc3C2=O)nc1C, the lipid storage change, negative = inhibition is reported as inconclusive: -31.1%.
For COC(=O)C1=C(C)NC(C)=C(C(=O)OC)C1c1ccc2ccccc2n1, the Potency was inconclusive: 0.651 µM [rising, single point].
In the case of N#Cc1ccc2[nH]cc(CCO)c2c1, the lipid storage change, negative = inhibition is reported as inconclusive: 23.4%.
In the case of O=C(Cc1ccccc1)N1CCN(C(=O)c2cccs2)CC1, the lipid storage change, negative = inhibition is reported as inconclusive: -7.81%.
In the case of CC(=O)c1cccc(NC(=O)Cn2cc3c(n2)CCCC3)c1, the lipid storage change, negative = inhibition is reported as inconclusive: 12.3%.
With CC1=C(C)CC(C(=O)NCCc2ccccc2)C(C(=O)O)C1 (stereo not drawn) the Potency was active: 6.51 µM.
With COC(=O)COC(=O)c1ccc(O)cc1 the lipid storage change, negative = inhibition was inconclusive: -3.41%.
For Cc1ccc(-n2ncc3c(=O)n(CC(=O)N(C)C)cnc32)cc1, the lipid storage change, negative = inhibition was inconclusive: 11.1%.
In the case of Nc1nnc(SCC(=O)NC23CC4CC(CC(C4)C2)C3)s1, the lipid storage change, negative = inhibition is reported as inconclusive: -41.3%.
With COc1nccnc1NS(=O)(=O)c1ccc(NS(=O)(=O)c2ccc(NC(C)=O)cc2)cc1 the lipid storage change, negative = inhibition was inconclusive: 10.4%.
With O=c1cc(O)nc(SCc2ccccc2)n1-c1ccc(F)cc1 the lipid storage change, negative = inhibition was inconclusive: 3.28%.
With O=C(C1CCCO1)N1CCN(C(=S)Nc2ccc(Cl)cc2Cl)CC1 (stereo not drawn) the Potency was inconclusive: 0.146 µM [falling, single point].
For Cc1cc(O)c(/C=N/OCc2ccc(Cl)cc2Cl)c(=O)o1, the lipid storage change, negative = inhibition was inconclusive: 18.3%.
With CCC/C(O)=C1\C(=O)CCCC1=NCCc1c(C)[nH]c2ccc(C)cc12 the lipid storage change, negative = inhibition was inconclusive: 14.2%.
In the case of Nc1ccc(S(=O)(=O)Nc2ccc(S(N)(=O)=O)cc2)cc1, the lipid storage change, negative = inhibition is reported as inconclusive: -15.3%.
With CCCCCCc1cc2cc(C(=O)OCC)c(=O)oc2cc1O the lipid storage change, negative = inhibition was inconclusive: -26%.
